{
  "source": "patent US20250222066A1",
  "about": "“COMPOSITIONS AND METHODS OF TREATING, PREVENTING OR INHIBITING A FACULTATIVE ANAEROBE INFECTION” (UNIVERSITY OF UTAH RESEARCH FOUNDATION, priority 2022, published 2025)",
  "tested_on": "biofilm-contaminated fixation plates",
  "assay": "Sheep model of biofilm-related orthopedic (musculoskeletal) infection",
  "format": "in vivo",
  "details": "21 days",
  "protocol": "Use of the Pouch device in a sheep model of biofilm-related orthopedic infection. The Pouch device and two clinical standards of care (IV-vancomycin, and gentamicin-loaded Stimulan® beads) were tested in a sheep model of biofilm-related orthoepic infection. Briefly, the proximal medial aspect of the right tibia is subjected to a blast from an air cannon to simulate traumatic soft tissue damage. In a surgical procedure, the periosteum is stripped, and two biofilm-contaminated fixation plates are situated above osteotomized fractures. At necropsy, one of the fixation plates and the surrounding tissue serve for microbiological analysis whereas the plate and tissues of the second site are used for histological analysis. Four groups of sheep (n=5/group) were used in testing. The first group served as a positive control of infection. The Pouch device was tested in one group. The Pouch device was placed during the surgery and refilled daily for 10 days with 480 mg of gentamicin sulfate, 1 g of vancomycin, and 36 mg of rifampin. Ten days after surgery the Pouch device was removed, and the sheep monitored for an additional 11 days; endpoint was 21 days for the groups. For comparison, clinical standards of care were tested in the remaining two groups: IV vancomycin, and Gentamicin-loaded Stimulan® beads. […]",
  "note": "Some results were stated once for a whole list of compounds, not compound by compound.",
  "data": [
    {"smiles": "CN[C@H](CC(C)C)C(=O)N[C@H]1C(=O)N[C@@H](CC(N)=O)C(=O)N[C@H]2C(=O)N[C@H]3C(=O)N[C@H](C(=O)N[C@H](C(=O)O)c4cc(O)cc(O)c4-c4cc3ccc4O)[C@H](O)c3ccc(c(Cl)c3)Oc3cc2cc(c3O[C@@H]2O[C@H](CO)[C@@H](O)[C@H](O)[C@H]2O[C@H]2C[C@](C)(N)[C@H](O)[C@H](C)O2)Oc2ccc(cc2Cl)[C@H]1O", "note": "[vancomycin]", "values": [
      {"measurement": "bioburden in hard and soft tissues relative to the threshold defining infection", "value": "> 105 colony forming units (CFU)/g"}
    ]}
  ]
}
